Conditions: storage requires protection from light

C(=C\c1ccccc1)/CN1CCN(C(c2ccccc2)c2ccccc2)CC1 [cinnarizine]
storage stability of the active ingredient: only limited storage stability
